## Results of single-concentration screens

Measurements from “University of Dundee, Small-Polar-MMV Screening Library” (2021), ChEMBL document CHEMBL3988442.

Values are the deposited “Percent Effect”, in %. How 0% and 100% were set is not recorded. Most values in the screen are low, and negative values occur. The compounds are a random part of those screened.

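Whole-parasite assay of Trypanosoma brucei over 72 hours; the read-out is not stated. Tested at 30 µM. Direction is inferred from retests: higher values go with stronger inhibition. Values scatter widely below zero; nearly all retest evidence comes from the higher of the two concentrations used. Size under these conditions: about 64,000 compounds, about 940 of them at 50% or above in at least one test.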

* COc1ccc(OCc2nccc(-c3cc(C(=O)O)ccn3)n2)cc1 | 8.869%
* CCn1nc2nc(SCC(=O)O)cc(C(F)F)c2c1C | -10.08%
* O=C1NCC(C(=O)N(Cc2cccc(Br)c2)C2CC2)N1 (centres unmarked) | -14.38%
* CCC(O)CN1CCN(C(=O)c2ccc(Cn3cccc3)cc2)CC1 (centres unmarked) | -15.69%
* O=C(O)C(F)(F)F.O=C(O)C(F)(F)F.O=C(O)C(F)(F)F.[H][C@]12C[C@H](C(=O)NCC3CC3)N(C)[C@@]1([H])CN(Cc1csc(C)n1)C2 | -74.09%
* CC(=O)N1CCCC(C(=O)N2Cc3nc(C)n(C)c(=O)c3C2)C1 (centres unmarked) | -15.93%
* O=C(Cc1cccs1)N1CCCCC1c1ccn2ccnc2n1 (centres unmarked) | 10.04%
* CN1CCC(Cc2cnc3ccccc3c2)C1 (centres unmarked) | -19.2%
* CC(C)c1cc(C2CCN(C(=O)Cn3nc4ccccc4n3)CC2)[nH]n1 | -44.08%
* Cc1occc1C(=O)N1CCc2ncnc(C3CCOC3)c2CC1 (centres unmarked) | -15.82%
* [H][C@]12CC[C@]([H])(CN(Cc3cccnc3)C1)N(C(=O)CCc1cnn(C)c1)C2 | -23.98%
* CC(C)(C)C(=O)NCC(=O)Nc1cccnc1 | -6.68%
* Cc1ccc2oc(CN3CCn4nc(CCC(=O)O)cc4C3)c(C)c2c1 | -21.82%
* CN(Cc1noc(C2CC2)n1)C1CCN(Cc2ccncc2)C1 (centres unmarked) | -8.13%
* COc1cccc(S(=O)(=O)N2CCCCC2CCN2CCOCC2)c1 (centres unmarked) | 24.02%
* CCC(CNS(=O)(=O)c1cccc(C(=O)OC)c1)N1CCCC1 (centres unmarked) | 2.28%
* O=C1CN(C(=O)C2CCOC2)CCN1Cc1ccc(Cl)cc1 (centres unmarked) | 0.1968%
* CC(C)c1nc(C2CCCN(Cc3nnc(C4CC4)o3)C2)no1 (centres unmarked) | -13.6%
* CC(=O)N1CC[C@H](c2nc3cc(C)ccc3o2)C1 | -19.73%
* [H][C@@]12OCCN(C(=O)CC3=CCCCC3)[C@@]1([H])CC[C@@H]2OC | 0.8954%
* NCC1CN(Cc2cn(CCC(N)=O)c3ccccc23)CCO1 (centres unmarked) | -22.24%
* O=C1CC(c2ccncc2)c2c(c(C(=O)O)cn2-c2ccccc2)N1 (centres unmarked) | -0.1666%
* CCc1nc(CN2CCCC2C(=O)NC)cs1 (centres unmarked) | -0.9824%
* CC(=O)N[C@@H](CC(C)C)C(=O)N1CCC(n2cc(C(C)(C)N)nn2)CC1 | -0.9465%
* CN(Cc1nnc2n1CCC2)C(=O)c1ccc2c(c1)OCCO2 | -70.17%
* Cc1nnc2n1CCN(C(=O)C1CCC(n3cccc3)CC1)C2 (centres unmarked) | -5.269%
* CC(=O)N1CCCC1c1csc(Nc2cnccn2)n1 (centres unmarked) | -20%
* CSc1nccc(NCc2cc3n(n2)CCCN(S(C)(=O)=O)C3)n1 | -5.436%
* CCc1c(O)nc2nc(N3CCOCC3)nn2c1C | -9.883%
* NC(=O)c1cccc(CC2CCN(C(=O)CO)C2)c1 (centres unmarked) | -81.08%
* COc1ccc2cc(C(=O)NCCc3nc(C)no3)[nH]c2c1 | -0.7836%
* O=C(CCn1ccnc1)N1C[C@@H](O)[C@H](Oc2cccc(F)c2)C1 | -32.94%
* OCc1cn(CC2CCN(C3CCSC3)CC2)nn1 (centres unmarked) | -5.601%
* COc1ccccc1CC(=O)N1CC[C@@]2(CCCO2)[C@@H](OC)C1 | -21.5%
* Cn1c(N)nnc1SCc1ccc(Cl)cc1Br | -5.695%
* COCCNC(=O)NC1(c2ccccc2F)CC1 | -25.48%
* CN(CCCNS(=O)(=O)N1CCC2(CC1)OCCO2)c1ccccc1 | -35.7%
* Cc1cc(NC(=O)N2CCN(C)CC2C)n(CCC#N)n1 (centres unmarked) | -23.46%
* Cn1ccnc1CN1CCCC(CCCc2ccccn2)(C(N)=O)C1 (centres unmarked) | -13.73%
* CN(Cc1ccc(N2CCOCC2)cc1)Cc1noc(C(C)(C)C)n1 | -51.16%
* O=C(c1ccoc1)N1CCc2ncnc(NCc3ccccn3)c2CC1 | -52.77%
* COCC(=O)N1CCC2(CC1)COCCN2CCN(C)C.O=C(O)C(F)(F)F.O=C(O)C(F)(F)F | -24.1%
* CCc1nc(CSC2CCCN(c3cnn(C)c3)C2=O)cs1 (centres unmarked) | -10.29%
* CN(CC1(O)CCCN(CCC2CCCCC2)C1=O)C1CCOCC1 (centres unmarked) | 24.75%
* CCc1ccccc1N1CC(c2nnc(N)s2)CC1=O (centres unmarked) | -8.983%
* CC(C)CCn1cc(C(C(=O)O)N2CCCN(C3CCCC3)CC2)cn1 (centres unmarked) | 9.477%
* [H][C@@]12CS(=O)(=O)C[C@]1([H])N(C(=O)Cc1cccs1)CCN2C(=O)COC | -45.75%
* CCN(CC)C(=O)Cn1cc(C(=O)NCCc2scnc2C)nn1 | 2.425%
* [H][C@@]12CN(Cc3c(C)noc3C)C[C@]1([H])CN(C(=O)c1cscn1)C2 | -38.72%
* COCCn1cncc1Cn1cccc(C(F)(F)F)c1=O | -30.76%

6 of the entries, repeated:

With CC(=O)N1CC[C@H](c2nc3cc(C)ccc3o2)C1 the screen gave -19.73%.
With CC(=O)N[C@@H](CC(C)C)C(=O)N1CCC(n2cc(C(C)(C)N)nn2)CC1 the screen gave -0.9465%.
With COCC(=O)N1CCC2(CC1)COCCN2CCN(C)C.O=C(O)C(F)(F)F.O=C(O)C(F)(F)F the screen gave -24.1%.
With CCc1c(O)nc2nc(N3CCOCC3)nn2c1C the screen gave -9.883%.
With [H][C@@]12OCCN(C(=O)CC3=CCCCC3)[C@@]1([H])CC[C@@H]2OC the screen gave 0.8954%.
With CCc1nc(CN2CCCC2C(=O)NC)cs1 (centres unmarked) the screen gave -0.9824%.